Results: patent US20240293457A1
Substitutions are numbered along the chain they refer to. Results are given in words; binding and its absence hold for the method and conditions named. Some binding calls cover weakened binding; strength is not graded here.

B1: Hz69H9 (antibody, human IgG1, kappa, V domains shown)
VH: QVQLVQSGAEVKKPGSSVKVSCKASGYSFSSYNIHWVRQAPGQGLEWMGYIAPFQGDSRYNQKFKGRVTITADKSTSTAYMELSSLRSEDTAVYYCARLNRGNSLDYWGQGTLVTVSS
VL: DIVMTQSPDSLAVSLGERATINCKSSQSLFNSGNQRNYLTWYQQKPGQPPKLLIYWASTRESGVPDRFSGSGSGTDFTLTISSLQAEDVAVYYCQNNYIYPLTFGGGTKVEIKR
B2: Hz14A5 (antibody, human IgG1, kappa, V domains shown)
VH: QVQLQESGPGLVKPSETLSLTCTVSGFSLNSYGVGWIRQPPGKGLEWIGVIWGDVSTNYHSVLISRVTISKDTSKNQVSLKLSSVTAADTAVYYCARITRGNAMDYWGQGTLVTVSS
VL: B1 VL with F30L, E61K, I99L, Y100F
B3: Hz38F8 (antibody, human IgG1, kappa, V domains shown)
VH: EVQLVESGGGLVQPGGSLRLSCAASGFSFSDYGMHWVRQAPGKGLEWVSYINSGSRTLYYADTVKGRFTISRDNAKNSLYLQMNSLRDEDTAVYYCARNAYYGNAMDYWGQGTLVTVSS
VL: B1 VL with F30L, A57S, E61G, N97V, I99Y, L102F, G106Q, K109R, V110L
B4: Hz46F6 (antibody, human IgG1, kappa, V domains shown)
VH: QVQLQESGPGLVKPSETLSLTCTVSGFSLTDYGVSWIRQPPGKGLEWIGVMWGGGNTYYNSALKSRVTISVDTSKNQFSLKLSSVTAADTAVYYCARQRYGGNAMDYWGQGTLVTVSS
VL: B1 VL with F30L, N97S, I99F, L102F
B5: Hz3G3 (antibody, human IgG1, kappa, V domains shown)
VH: QVQLVQSGAEVKKPGASVKVSCKASGYSFTTYWMHWVRQAPGQGLEWMGLIDPSDSETRLNQKFKDRVTMTVDTSTSTVYMELSSLRSEDTAVYYCASNRWLLGWGQGTLVTVSS
VL: B1 VL with F30L, R36K, N97D, I99S, G106Q, V110L
B6: Hz25C7 (antibody, human IgG1, kappa, V domains shown)
VH: EVQLVESGGGLVQPGGSLRLSCAASGFTFSDYGMAWVRQAPGKGLEWVAFINNLAYSIYYVDTVTGRFTISRDNAKNSLYLQMNSLRAEDTAVYYCARFTTGNVMDYWGQGTLVTVSS
VL: B1 VL with F30L, N31Q, S32G, R36K, A57S, N97S, I99S

What follows are binders tested against human Claudin 18.2 protein (P50251802, GenScript) (human) (UniProt P56856) (assay: SPR (Biacore T200), human Claudin18.2 on CM5 chip).

binding, binds:
B1
B2
B3
B4

These binders were tested against human Claudin 18.2 protein (P50251802, GenScript) (human) (UniProt P56856) (assay: SPR (Biacore T200), human Claudin18.2 on CM5 chip; this antibody is one of the two exceptions (not superior to Zmab)).

binding, binds:
B5
B6
